Measured values: patent US20100297194A1, “FORMULATION FOR ORAL ADMINISTRATION OF APOPTOSIS PROMOTER” (priority 2009, published 2010)
Counter-ions that a name gives are not always drawn. This continues a long series; more values of the same kind are listed elsewhere.

Experiments:
[1] = drug solubility in ternary excipient systems (Example 2); type: physicochemical; design: key: ✓: vehicle miscible, or drug fully dissolved in vehicle; conditions: 10% salt, 20% free base
Description: (§1) Solvents evaluated included Labrafil M 1944 CS™, Imwitor 742™ oleic acid, Capmul PG-8™, Capmul PG-12™, Lauroglycol 90™ and Phosal 53 MCT™. Surfactants evaluated included Tween™ 80, Cremophor RH40™, Gelucire 44/14™ and Labrasol™.

[2] = as above; type: physicochemical; design: key: ✓: vehicle miscible, or drug fully dissolved in vehicle; X: vehicle immiscible or miscible but turbid, or residual solids present (due to undissolved drug or precipitation); conditions: 10% salt, 20% free base
Description: as §1

ABT-263 solubility ([1]; ILC (Imwitor 742/Labrafil M 1944 CS/Cremophor RH40) 40:40:20 by weight, listed as ABT-263 bis-HCl salt)	ABT-263 solubility ([1]; LIT (Labrafil M 1944 CS/Imwitor 742/Tween 80) 30:45:25 by weight, listed as ABT-263 bis-HCl salt)	ABT-263 solubility ([1]; LIT (Labrafil M 1944 CS/Imwitor 742/Tween 80) 40:35:25 by weight, listed as ABT-263 bis-HCl salt)	ABT-263 solubility ([1]; LLC (Lauroglycol 90/Labrafil M 1944 CS/Cremophor RH40) 45:30:25 by weight)	ABT-263 solubility ([1]; LOC (Labrafil M 1944 CS/oleic acid/Cremophor RH40) 30:60:10 by weight)	ABT-263 solubility ([1]; LOC (Labrafil M 1944 CS/oleic acid/Cremophor RH40) 40:50:10 by weight)	ABT-263 solubility ([2]; C8LC (Capmul PG-8/Labrafil M 1944 CS/Cremophor RH40) 40:40:20 by weight)	ABT-263 solubility ([2]; C8LC (Capmul PG-8/Labrafil M 1944 CS/Cremophor RH40) 50:30:20 by weight)	ABT-263 solubility ([2]; C8LC (Capmul PG-8/Labrafil M 1944 CS/Cremophor RH40) 50:40:10 by weight)	ABT-263 solubility ([2]; C8LC (Capmul PG-8/Labrafil M 1944 CS/Cremophor RH40) 60:30:10 by weight)	ABT-263 solubility ([2]; ILC (Imwitor 742/Labrafil M 1944 CS/Cremophor RH40) 40:40:20 by weight, listed as ABT-263 free base)	ABT-263 solubility ([2]; ILC (Imwitor 742/Labrafil M 1944 CS/Cremophor RH40) 50:30:20 by weight, listed as ABT-263 free base)	ABT-263 solubility ([2]; LIT (Labrafil M 1944 CS/Imwitor 742/Tween 80) 30:45:25 by weight, listed as ABT-263 free base)	ABT-263 solubility ([2]; LIT (Labrafil M 1944 CS/Imwitor 742/Tween 80) 40:35:25 by weight, listed as ABT-263 free base)	SMILES
✓	✓	✓	✓	✓	✓	X	X	X	X					CC1(C)CCC(c2ccc(Cl)cc2)=C(CN2CCN(c3ccc(C(=O)NS(=O)(=O)c4ccc(N[C@H](CCN5CCOCC5)CSc5ccccc5)c(S(=O)(=O)C(F)(F)F)c4)cc3)CC2)C1 [ABT-263 bis-HCl]
										X	X	X	X	CC1(C)CCC(c2ccc(Cl)cc2)=C(CN2CCN(c3ccc(C(=O)NS(=O)(=O)c4ccc(N[C@H](CCN5CCOCC5)CSc5ccccc5)c(S(=O)(=O)C(F)(F)F)c4)cc3)CC2)C1 [ABT-263, N-(4-(4-((2-(4-chlorophenyl)-5,5-dimethyl-1-cyclohex-1-en-1-yl)methyl)piperazin-1-yl)benzoyl)-4-(((1R)-3-(morpholin-4-yl)-1-((phenylsulfanyl)methyl)propyl)amino)-3-((trffluoromethyl)sulfonyl)benzene-sulfonamide]
